According to patent US9517265B2, “Methods for the prevention and/or treatment of memory impairment” (The Governing Council of the University of Toronto, priority 2010, dated 2016):
Read-outs that look alike come from different tables or passages of the source. At least one compound was matched to its structure with a doubt left.

Chains of the proteins cited; added tags and fusions are not shown. Residues count along the entry.
UniProt P22723, 39-474: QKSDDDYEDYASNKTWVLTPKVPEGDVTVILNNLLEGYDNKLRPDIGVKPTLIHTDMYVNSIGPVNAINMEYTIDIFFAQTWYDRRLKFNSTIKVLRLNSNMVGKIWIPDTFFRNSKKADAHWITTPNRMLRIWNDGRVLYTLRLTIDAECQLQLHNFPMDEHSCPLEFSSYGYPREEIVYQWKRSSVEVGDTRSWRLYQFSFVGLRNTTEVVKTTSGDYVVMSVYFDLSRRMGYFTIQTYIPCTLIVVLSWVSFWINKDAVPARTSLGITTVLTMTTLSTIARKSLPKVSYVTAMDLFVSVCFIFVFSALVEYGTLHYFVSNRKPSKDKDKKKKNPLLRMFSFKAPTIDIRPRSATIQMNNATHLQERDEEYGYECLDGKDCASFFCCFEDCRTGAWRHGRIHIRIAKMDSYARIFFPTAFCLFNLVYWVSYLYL
UniProt Q8BHJ7, 32-463 limits assumed: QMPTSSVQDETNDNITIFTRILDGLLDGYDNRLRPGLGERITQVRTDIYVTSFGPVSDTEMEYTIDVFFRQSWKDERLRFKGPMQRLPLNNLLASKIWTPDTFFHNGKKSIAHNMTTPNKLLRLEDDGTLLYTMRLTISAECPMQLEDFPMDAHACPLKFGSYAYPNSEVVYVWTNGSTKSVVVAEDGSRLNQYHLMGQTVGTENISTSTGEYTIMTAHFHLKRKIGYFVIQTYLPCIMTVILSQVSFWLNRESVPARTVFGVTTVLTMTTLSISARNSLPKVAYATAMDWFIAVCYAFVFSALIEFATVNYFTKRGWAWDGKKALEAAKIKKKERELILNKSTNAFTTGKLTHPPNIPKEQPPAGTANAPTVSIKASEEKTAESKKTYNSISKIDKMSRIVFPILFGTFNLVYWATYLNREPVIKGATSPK

Legend:
postsynaptic GABAARs = test: Whole-cell currents evoked by exogenous GABA (10 μM) in cultured hippocampal neurons; assay type: cell-based, mice
α5GABAARs = α5GABAARs (Mus musculus, UniProt P22723+Q8BHJ7); test: Tonic inhibitory current, whole cell voltage-clamp in cultured hippocampal neurons; assay type: cell-based, mice; design: endogenous in cells; host or cells: primary embryonic mouse hippocampal neurons, alone or co-cultured with cortical microglia

For COC[C@H]1OC(=O)c2coc3c2[C@@]1(C)C1=C(C3=O)[C@@H]2CCC(=O)[C@@]2(C)C[C@H]1OC(C)=O [wortmannin], the “effect on IL-1β inhibition of the GABA-evoked peak current (in words)” value (postsynaptic GABAARs) was “completely prevented IL-1β-dependent inhibition of the GABA-evoked peak current”.
For Oc1c2ccccc2c2c3c(cccc13)N=N2 [SP600,125], the “effect on the tonic current (in words)” value (α5GABAARs) was “had no effect on the IL-1β-induced increase in tonic current” and the “effect on the tonic current (in words)” value (α5GABAARs; listed as SP600125) was “did not modify the IL-1β-enhanced tonic current”.
